Here are results for two compounds from US10525187B2, “Apparatus for removing protein-bound toxins from blood plasma” (Fresenius Medical Care Deutschland GmbH, priority 2012, dated 2020).

Values joined by “and” are separate entries in the source; they are usually repeats but may differ in a detail not shown here. Identical values can stand only once. Counter-ions that a name gives are not always drawn.

This data set concerns protein-bound uremic toxins. Nature of the data set: Suitable frequencies in the HF field for separation of protein-bound uremic toxins (Embodiment 3, Table 1). The class given is in vitro ADME.

With `Cc1ccc(OS(=O)(=O)O)cc1` [pCRS], the “Suitable frequencies in the HF field (ranges at which the maximum separation effect was determined)” value (from here on “Suitable frequencies in the HF field”) by setting is: (E field 80-120 MHz) 110 MHz and 110-111 MHz and 111 MHz; (E field 120-170 MHz) 151-152 MHz and 140-141 MHz.

In the case of `O=S(=O)(O)Oc1c[nH]c2ccccc12` [IDS, indoxyl sulfate], the “Suitable frequencies in the HF field” value (E field 80-120 MHz) was 110 MHz and 110-111 MHz and 111 MHz; the “Suitable frequencies in the HF field” value (E field 120-170 MHz) is 140-141 MHz.
